Reference: patent US8269010B2, “3-amino-pyridine derivatives for the treatment of metabolic disorders” (Piramal Healthcare Limited, priority 2006, dated 2012)
At least one structure is not confirmed: it was looked up by name or label, or the drawing left a doubt.

Test system: insulin resistant adipocytes (3T3 L1)
Experiment: In vitro model exhibiting insulin resistance (IR assay): 14C-2-deoxyglucose uptake
Assay type: cell-based
Conditions: Rosiglitazone 0.1 μM standard itself
Method: The assay was designed as in the reference, British Journal of Pharmacology, 130, 351-58, 2000, the disclosure of which is incorporated by reference for the teaching of the assay. The solution of test compound (10 μM/mL) was prepared in DMSO. […] Differentiation into adipocytes was induced by the known methods as described below. (See, also, J. Biol. […] 3T3 L1 fibroblasts were seeded in 24- or 6-well plates at a density of 0.5−2×10^4 cells/well and were allowed to reach maximal confluency. The confluent fibroblasts were exposed to culture medium for 2 days. […] The mature adipocytes were exposed to dexamethasone, 100 nM added in ethanol, in culture medium and incubated for 2 days. […] The test compound was also present during this period. After 3-4 hours, the medium was aspirated and replaced with Kreb's Ringer phosphate (KRP) buffer at pH 7.4 and with human/porcine insulin, 200 nM. The cells were incubated for 30 minutes at 37° C. […] After exactly 5 minutes, the plates were transferred to ice trays and medium was rapidly aspirated. The cell layer was washed twice with ice-cold phosphate buffered saline, (PBS), pH 7.4. […] Non-specific glucose uptake was assayed in wells exposed to cytochalasin B, inhibitor of glucose transport. […] Statistical analysis was performed using unpaired t-test.

In the case of `CN(CCOc1ccc(CC2SC(=O)NC2=O)cc1)c1ccccn1` (stereo not shown) [Rosiglitazone, reference compound], the “% of Rosiglitazone (comparison with Rosiglitazone)” value is reported as 100%.
